Some of the results follow. Shown are side measurements of this screen, not its main read-out; they come without a call. Most of these compounds were active or inconclusive in the main read-out, so they are no random draw. Potencies come from curve fits of mixed quality, noted in brackets.

The experiment is described as follows: qHTS Assay for Lipid Storage Modulators in Drosophila S3 Cells.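 On cell number change: cells counted by Cell Tracker Red CMTPX staining in the red channel.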 Conditions: BODIPY lipid droplet fluorescence, 18-24 h; for cell number change: measured here: cell count max response, cells fed with added oleic acid. Put shortly:
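Laser-scanning cytometry quantifies lipid droplet accumulation (500–530 nm total intensity; droplet/cell object ratio) in oleic acid-fed (400 uM added) Drosophila S3 cells treated with a concentration series. 20 uM Triacsin C defined 100% inhibition.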
For orientation: In qHTS, concentration-response curves come from the screen itself.

[1] abbreviates: measured here: cell number channel AC50, cells fed with added oleic acid.
Setting [2] is: measured here: lipid fluorescence (Fed channel) AC50, cells fed with added oleic acid.

What is called AC50 is the concentration giving half of the maximal activity seen. On to `Cc1ccc(CN2CCC(N3CCC(C(=O)NCC4CCCO4)CC3)CC2)o1` (stereo not given), for which the cell number change is -54.4%. Moreover, the concentration at half-maximal activity (AC50) under setting [1] was 0.00651 µM [falling, full curve, poor fit]. The AC50 under setting [2] was 0.82 µM [falling, partial curve, poor fit].
Regarding `COc1cc(C)c(S(=O)(=O)n2ccc(C)n2)cc1C`, the cell number change amounted to 94.8%. For the same compound, the concentration at half-maximal activity (AC50) under setting [1] was 0.411 µM [rising, full curve]. For the same compound, the AC50 under setting [2] is 0.291 µM [rising, full curve].
Regarding `Cc1ccc(S(=O)(=O)NCC(=O)NCC(=O)OCC(=O)NC(=O)NC(C)(C)C)cc1C`, the cell number change was -25%. For the same compound, the half-maximal activity concentration (AC50) under setting [2] was 6.51 µM [rising, partial curve, poor fit].
As to `Cn1c(SCc2ccccc2)nc2c1c(=O)[nH]c(=O)n2C`, the cell number change came to 91.5%. Further, the AC50 under setting [1] is 18.4 µM [rising, partial curve].
Turning to `Cc1ccoc1C(=O)Nc1cccc(Oc2ccccc2)c1`, the cell number change was 14.3%. Besides, the half-maximal activity concentration (AC50) under setting [1] is 0.291 µM [rising, full curve, poor fit]. Moreover, the half-maximal activity concentration (AC50) under setting [2] is 0.651 µM [rising, full curve].
Consider `C/C(=N\NC(=O)c1cc(C)nc2ccccc12)c1ccco1`, for which the cell number change came to 11.6%. The AC50 under setting [2] was 35.5 µM [rising, single point].
As for `COc1ccc(-c2cc(=O)oc3cc(OCC(=O)N(C)C)ccc23)cc1`, the cell number change is -13.8%. In addition, the AC50 under setting [2] is 0.13 µM [rising, full curve, poor fit].
`COc1cc(Cn2ccnc2)c(OC)cc1Cn1ccnc1`: the cell number change worked out at 32.6%. Under setting [1], the AC50 is 18.4 µM [rising, single point].
`COc1ccc(CC(=O)NCC2CCCN(Cc3ccc(SC)cc3)C2)cc1` (stereo not given): the cell number change was -5.87%. The concentration at half-maximal activity (AC50) under setting [2] was 6.51 µM [falling, single point].
Regarding `CC(C)(C)NC(=O)C(c1cccs1)N(C(=O)c1csnn1)c1ccccc1F` (stereo not given), the cell number change came out at 1.85%. In addition, the concentration at half-maximal activity (AC50) under setting [1] was 4.11 µM [falling, single point].
As for `COC(=O)c1cc(NC(=O)c2nccnc2C(=O)O)cc(C(=O)OC)c1`, the cell number change amounted to 18.4%. The AC50 under setting [1] is 4.11 µM [rising, single point].
Turning to `Cc1ccc2nsnc2c1S(=O)(=O)N1CCN(C(=O)C2CCCO2)CC1` (stereo not given), the cell number change was found to be 12.6%. In addition, under setting [2], the concentration at half-maximal activity (AC50) was 0.651 µM [falling, single point].
In the case of `COc1ccc(OC)c2[nH]c(=O)c(CCNC(=O)C(=O)c3c[nH]c4ccccc34)cc12`, the cell number change was found to be 31%. Moreover, under setting [1], the AC50 is 0.092 µM [rising, full curve, poor fit]. Besides, the AC50 under setting [2] was 0.461 µM [rising, full curve, poor fit].
Consider `O=C(CCNS(=O)(=O)c1ccccc1)NNC(=O)c1csc(N2CCOCC2)n1`, for which the cell number change was found to be 25.5%. Moreover, under setting [2], the AC50 is 29.1 µM [rising, single point].
Take `CCCNC(=O)c1cc(C)no1`: the cell number change is -92.2%. Besides, the AC50 under setting [1] was 20.6 µM [falling, partial curve]. Also, the concentration at half-maximal activity (AC50) under setting [2] is 29.1 µM [falling, partial curve].
Turning to `CCOc1ccccc1N(CC(=O)N1CCc2ccccc2C1)S(C)(=O)=O`, the cell number change was 20.8%. In addition, under setting [2], the AC50 was 29.1 µM [rising, single point].
For the compound `Cc1nn(C)cc1CN1CCC(n2nccc2NC(=O)CCCc2ccccc2)CC1`, the cell number change stood at 2.07%. Moreover, the AC50 under setting [2] is 6.51 µM [falling, single point].
As to `NC(=O)C1CC12c1ccccc1-c1ccccc12` (stereo not given), the cell number change is -11.7%.
For `NC(=O)NC(Cc1ccccc1)c1ccccc1` (stereo not given), the cell number change was -42.2%. For the same compound, under setting [2], the concentration at half-maximal activity (AC50) is 0.13 µM [falling, full curve, poor fit].
Consider `O=C(Nc1nc2c(s1)CCCC2=O)c1cnccn1`, for which the cell number change came out at 21.2%. Further, the half-maximal activity concentration (AC50) under setting [2] is 29.1 µM [rising, single point].
In the case of `Cc1ccc(C(=O)OCc2cc(=O)n3c(C)csc3n2)s1`, the cell number change was 6.77%. In addition, under setting [2], the AC50 is 0.103 µM [rising, full curve, poor fit].
For the compound `Cc1ccc(NC(=O)CN2C(=O)N/C(=C/c3ccccc3OCc3cccc(C(=O)O)c3)C2=O)cc1`, the cell number change came to 4.76%.
In the case of `O=C(/C=C/c1ccc2c(c1)OCO2)NCc1ccc(F)cc1`, the cell number change was found to be 0.103%. Further, the AC50 under setting [2] was 29.1 µM [falling, single point].
Turning to `CNS(=O)(=O)c1cn(CC(=O)NCc2ccc(OC)cc2)cc1S(=O)(=O)NC`, the AC50 by setting is: under setting [1], 0.00411 µM [rising, full curve, poor fit]; under setting [2], 0.58 µM [rising, single point].
For `O=C(O)CCCC(=O)Nc1ccc(Cl)cc1`, the cell number change stood at 16.8%. Also, the half-maximal activity concentration (AC50) under setting [2] is 0.164 µM [rising, full curve, poor fit].
Take `CCC(=O)OCCNc1cc(Sc2nc3ccccc3s2)c2nonc2c1[N+](=O)[O-]`: the cell number change is -57.1%. The concentration at half-maximal activity (AC50) under setting [1] was 9.2 µM [falling, partial curve, poor fit]. Moreover, the AC50 under setting [2] is 20.6 µM [falling, single point].
As to `CC(C)Cc1cc(C(=O)NCc2cccs2)no1`, the AC50 under setting [2] is 6.51 µM [rising, single point].
On to `Cc1ccccc1NC(=O)Cc1c(O)c2ccccc2[nH]c1=O`, for which the cell number change turned out to be 0.631%. The AC50 under setting [2] was 0.082 µM [falling, full curve, poor fit].
With `CC(Oc1ccccc1)C(=O)Nc1ccc(S(=O)(=O)NCC2CCCO2)cc1` (stereo not given), the AC50 under setting [1] was 0.00461 µM [rising, full curve, poor fit].
For `CN(Cc1ccco1)c1ncnc2ccc(-c3cccc(Cl)c3)cc12`, the cell number change came to 11%. Moreover, under setting [2], the AC50 was 2.06 µM [rising, full curve, poor fit].
As to `COc1ccc(OCC(=O)O/N=C(\N)c2ccc(OC)c(OC)c2)cc1`, the cell number change was determined as 2.13%. Moreover, under setting [2], the AC50 was 29.1 µM [rising, single point].
On to `COc1ccc(COc2cc(-c3cccc(OC)c3)nc3ccc(NC(=O)c4ccc(N(C)C)cc4)cc23)cc1`, for which the cell number change stood at 21.8%. Moreover, the AC50 under setting [2] is 2.59 µM [rising, partial curve].
In the case of `COc1cc(/C=N/NC(=O)c2ccccc2Cl)ccc1Oc1ccc([N+](=O)[O-])cn1`, the cell number change came out at 18.8%. Moreover, the AC50 under setting [1] was 0.366 µM [rising, full curve, poor fit].
For the compound `Cc1ccc(CN2CCN(c3ccccc3)CC2)o1`, the cell number change came out at 38.5%. In addition, under setting [1], the AC50 was 29.1 µM [rising, single point]. Besides, the AC50 under setting [2] was 29.1 µM [rising, single point].
`CCOc1cc(C(c2c(C)[nH][nH]c2=O)c2c(C)[nH][nH]c2=O)ccc1OC(=O)c1cccc([N+](=O)[O-])c1`: the cell number change was -58.2%. Also, the AC50 under setting [1] was 3.66 µM [falling, full curve]. In addition, the half-maximal activity concentration (AC50) under setting [2] was 29.1 µM [falling, single point].
Consider `CN1CCN(S(=O)(=O)c2ccc(N(C)Cc3cccc(F)c3)nc2)CC1`, for which the cell number change came out at 2.2%. Moreover, the half-maximal activity concentration (AC50) under setting [2] is 29.1 µM [rising, single point].
In the case of `COc1ccccc1CN(Cc1cccnc1)S(=O)(=O)c1ccc(-n2cnnn2)c(OC)c1`, the cell number change was -2.78%.
Regarding `Cc1nc2nc(SCC(=O)Nc3cccc(F)c3)[nH]c2cc1Br`, the cell number change was 99.6%. In addition, under setting [1], the half-maximal activity concentration (AC50) was 4.11 µM [falling, single point]. Besides, the AC50 under setting [2] is 0.731 µM [rising, single point].
`c1ccc2sc(-c3ccncc3)nc2c1`: the cell number change turned out to be 2.14%. Besides, the half-maximal activity concentration (AC50) under setting [2] is 1.46 µM [rising, partial curve, poor fit].
As to `CCCCc1ccc(NS(=O)(=O)c2cccs2)cc1`, the cell number change was -49.5%. Moreover, the AC50 under setting [1] is 29.1 µM [falling, single point]. Besides, the AC50 under setting [2] is 29.1 µM [falling, single point].
Consider `COc1ccccc1-n1c(C)c2c(OC)cccc(=O)c2c1C`, for which the cell number change was 2.43%. The AC50 under setting [2] was 18.4 µM [rising, single point].
Turning to `O=C(O)/C(=C\c1ccc(Cl)cc1)c1ccc(F)cc1`, the cell number change is -102%. Moreover, under setting [1], the AC50 is 18.4 µM [falling, single point]. Under setting [2], the AC50 is 18.4 µM [falling, partial curve].
Take `COc1cccc(OCc2nc(-c3ccc(Br)o3)no2)c1`: the cell number change was 35.8%. Besides, the AC50 under setting [1] is 2.59 µM [falling, partial curve]. Besides, the concentration at half-maximal activity (AC50) under setting [2] is 6.51 µM [falling, single point].
`COc1ccccc1-c1nc(SCC(=O)Nc2ccccc2)n[nH]1`: the cell number change came to 18.9%. The AC50 under setting [2] was 29.1 µM [rising, single point].
With `Cn1cc(CCC(=O)NCc2ccc3c(c2)OCO3)c2ccccc21`, the cell number change is -0.119%.
In the case of `COC(=O)Cn1c(=NC(=O)CN2C(=O)CCC2=O)sc2cc(S(N)(=O)=O)ccc21`, the cell number change was 14.7%. The concentration at half-maximal activity (AC50) under setting [2] is 6.51 µM [falling, single point].
Consider `CC(C)c1ccc(OCc2nnc(SCC(=O)N3CCCCC3)o2)cc1`, for which the cell number change is -23.7%.
With `CCC(C)c1ccccc1NC(=O)COc1ccc(-n2cnnn2)cc1` (stereo not given), the cell number change was determined as 6.8%. Moreover, the AC50 under setting [2] was 6.51 µM [falling, single point].
In the case of `COCCCN(Cc1cccs1)S(=O)(=O)c1c[nH]c(C(=O)OC)c1`, the cell number change turned out to be 21.4%.
Still for that read-out and setting: for `Cc1ccc(CNC(=O)CCn2c(=O)oc3ccccc32)cc1` the value was -12.1%.
With `C/C(=N\NC(=O)c1nnn(-c2nonc2N)c1C(C)C)c1cc(C)sc1C`, the cell number change was 5.5%. The AC50 under setting [2] is 7.31 µM [rising, partial curve].
As for `COc1ccc([C@@]2(C(C)C)ON(c3ccccc3C(F)(F)F)C2=O)cc1`, the cell number change is -83.4%. Besides, the AC50 under setting [1] is 16.4 µM [falling, partial curve].
For `COc1ccc(C)cc1NC(=O)Nc1ccc(Br)cn1`, the cell number change turned out to be 34.6%. In addition, the half-maximal activity concentration (AC50) under setting [1] was 8.2 µM [rising, partial curve, poor fit]. In addition, under setting [2], the AC50 was 0.0184 µM [rising, full curve, poor fit].
In the case of `Cn1nc(-c2ccccc2)c(-c2nc(-c3ccccc3Cl)no2)c1Cl`, the half-maximal activity concentration (AC50) by setting is: under setting [1], 0.58 µM [rising, single point]; under setting [2], 6.51 µM [rising, single point].
Consider `N#Cc1ccccc1S(=O)(=O)N1CCN(C(=O)[C@H](Cc2ccccc2)NC(=O)c2ccco2)CC1`, for which the cell number change is -1.1%. Besides, the AC50 under setting [2] is 1.16 µM [rising, full curve, poor fit].
Turning to `CCc1ccccc1NC(=S)N(CCN(C)C)C(C)c1ccccn1` (stereo not given), the cell number change is -5.52%.
With `Cc1onc(-c2ccccc2Cl)c1C(=O)OCC(=O)c1ccc[nH]1`, the cell number change was found to be 49.2%. Further, the AC50 under setting [1] is 20.6 µM [rising, single point].
In the case of `Cc1ccc(NC(=O)CN(C)C(=O)c2cccc(S(=O)(=O)N3CCc4ccccc43)c2)cc1`, the cell number change amounted to 30.9%. Further, the concentration at half-maximal activity (AC50) under setting [1] was 2.06 µM [rising, partial curve, poor fit]. Besides, under setting [2], the concentration at half-maximal activity (AC50) was 9.2 µM [rising, partial curve, poor fit].

The values above are taken from PubChem BioAssay AID2685 (National Center for Advancing Translational Sciences (NCATS), 2010).
